According to publication PMC11770632 (Journal of Medicinal Chemistry, 2024):
Values belong to the molecule of their own block, whether it stands above or below them.

Columns and labels:
[1] = pH 7.4
physchem = conditions: pH 7.4, aqueous buffer, kinetic from dmso stock
DCAF1-WD40 domain = conditions: cited from earlier work

Solubility and aggregation (DLS) at 200 μM [1]: compromised
SMILES: Cc1cc(=O)c(C(=O)OC(C)C(=O)Nc2nc(-c3ccccc3)cs2)nn1-c1ccccc1 (stereo not drawn) [DR02034]

solubility (physchem): ≥ 200 µM
SMILES: O=C(Nc1nnc(C(F)(F)F)s1)c1cc(-c2ccccc2)nn1-c1ccccc1 [DR02380]

SMILES: NC(=O)C[C@H](NC(=O)c1c[nH]nc1-c1ccc(Cl)cc1F)c1ccc(F)c(Cl)c1 [OICR-8268]
Stabilization of DCAF1-WD40 domain in DSF (DCAF1-WD40 domain): potently stabilized
